From patent US20260183367A1

Amino acid sequences for entries named in this document (tags omitted). Residues count along the entry.
UniProt P49790, residues 2-1475: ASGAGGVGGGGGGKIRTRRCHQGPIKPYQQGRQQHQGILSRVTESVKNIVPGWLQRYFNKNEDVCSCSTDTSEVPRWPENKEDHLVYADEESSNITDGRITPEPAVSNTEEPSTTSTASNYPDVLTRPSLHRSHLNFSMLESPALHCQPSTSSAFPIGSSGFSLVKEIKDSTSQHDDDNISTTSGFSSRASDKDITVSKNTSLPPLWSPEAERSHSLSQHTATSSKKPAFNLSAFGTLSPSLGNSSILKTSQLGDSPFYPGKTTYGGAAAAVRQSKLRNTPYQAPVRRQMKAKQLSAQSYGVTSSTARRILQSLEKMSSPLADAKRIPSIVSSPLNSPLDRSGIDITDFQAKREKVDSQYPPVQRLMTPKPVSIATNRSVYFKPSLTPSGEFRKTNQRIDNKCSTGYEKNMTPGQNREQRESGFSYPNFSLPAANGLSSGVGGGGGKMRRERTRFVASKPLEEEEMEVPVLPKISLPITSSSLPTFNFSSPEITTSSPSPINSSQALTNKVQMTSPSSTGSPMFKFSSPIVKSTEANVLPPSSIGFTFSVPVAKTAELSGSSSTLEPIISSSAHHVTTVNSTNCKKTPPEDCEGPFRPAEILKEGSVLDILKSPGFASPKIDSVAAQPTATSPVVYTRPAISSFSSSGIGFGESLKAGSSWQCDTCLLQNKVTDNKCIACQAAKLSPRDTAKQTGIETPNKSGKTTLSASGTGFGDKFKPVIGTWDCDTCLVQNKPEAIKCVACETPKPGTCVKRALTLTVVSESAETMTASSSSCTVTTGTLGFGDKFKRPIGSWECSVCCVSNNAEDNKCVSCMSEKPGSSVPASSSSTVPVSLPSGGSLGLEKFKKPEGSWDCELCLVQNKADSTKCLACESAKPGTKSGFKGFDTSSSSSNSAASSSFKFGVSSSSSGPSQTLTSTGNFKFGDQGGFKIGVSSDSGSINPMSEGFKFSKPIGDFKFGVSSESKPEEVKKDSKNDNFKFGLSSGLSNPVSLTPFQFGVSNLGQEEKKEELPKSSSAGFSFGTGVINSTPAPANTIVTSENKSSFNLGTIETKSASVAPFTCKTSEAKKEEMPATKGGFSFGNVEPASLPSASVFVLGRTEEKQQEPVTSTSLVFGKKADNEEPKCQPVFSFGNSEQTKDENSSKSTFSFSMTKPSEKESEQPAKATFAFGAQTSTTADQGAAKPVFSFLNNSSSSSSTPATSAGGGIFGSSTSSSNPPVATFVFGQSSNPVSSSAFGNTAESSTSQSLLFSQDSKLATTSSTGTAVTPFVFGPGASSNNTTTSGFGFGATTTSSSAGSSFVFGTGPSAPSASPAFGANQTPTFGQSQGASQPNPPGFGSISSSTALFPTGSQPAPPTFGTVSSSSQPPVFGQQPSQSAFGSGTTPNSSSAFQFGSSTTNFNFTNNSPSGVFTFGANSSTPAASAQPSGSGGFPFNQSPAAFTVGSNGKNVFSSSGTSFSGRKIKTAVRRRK

Columns and labels:
Nup153 = Nup153 (UniProt P49790); experiment: immunoprecipitation and mass spectrometry, HEK293 cells
GFP-TDP-43-mNLS = GFP-TDP-43-mNLS (UniProt Q13148); experiment: as above

| binding (Nup153) | binding (GFP-TDP-43-mNLS) | Binder |
| --- | --- | --- |
| binds |  | mCherry-tagged Nup50-N (1-210) (protein, not shown: large carriers) MAKRNAEKELTDRNWDQEDEAEDVGTFSMASEEVLKNRAIKKAKRRNVGFESDTGGAFKGFKGLVVPSGGGRFSGFGSGAGGKPLEGLSNGNNITSAPPFASAKAAADPKVAFGSLAANGPTTLVDKVSNPKTNGDSQQPSSSGLASSKACVGNAYHKQLAALNCSVRDWIVKHVNTNPLCDLTPIFKDYEKYLANIEQQHGNSGRNSES |
|  | binds | CSVRDWIVKHVNTNPLCDLTPIFKDYEKYLANIEQQ (peptide, not shown: large carriers) [mCherry-tagged Nup50 aa165-200] |
|  | binds | LAALNCSVRDWIVKHVNTNPLCDLTPIFKDYEKYLA (peptide, not shown: large carriers) [mCherry-tagged Nup50 aa160-195] |
| binds |  | LAALNCSVRDWIVKHVNTNPLCDLTPIFKDYEKYLANIEQQ (peptide, not shown: large carriers) [mCherry-tagged Nup50 160-200] |

No constants are given. Whether binding was seen depends on the method and setting. In cells and extracts the contact can be indirect. These calls come from enrichment with a bait or labelling near it, and not all partners need be listed. Where a sequence is shown, tags or fusion partners need not be part of it.
